Reference: the supplement of paper PMC10338343
± gives the standard deviation. Only a part is listed here, and it is no random draw. Many of these values have a large error. Some of the results follow.

Experiments:
[1] = tested on: MILI (PIWIL2) piRISC loaded with L1MC piRNA (26 nt); assay: pre-steady-state target cleavage rate (min^-1); higher = faster piRNA-guided slicing of the target; conditions: guide: L1MC piRNA 5'p-UAACUAAAUACUAUGCAAGCUGUAGG
Procedure, shortened: (§1)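 Sequencing of uncleaved targets, normalised to depth and to weakly complementary targets, was the readout of this Cleave-'n-Seq assay. A transcribed, DNA-blocked target RNA library (0.1 nM) was mixed with 1 nM active affinity-purified piRISC carrying one synthetic guide, with or without 500 nM GTSF1 partner protein, in HEPES–potassium acetate buffer at 33 °C for 0–8 or 0–960 min. Three trials were pooled, k3 was capped at 0.0001 min^-1, and a burst-and-steady-state fit gave the pre-steady-state cleavage rate.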

[2] = tested on: EfPiwi piRISC loaded with L1MC piRNA (26 nt); assay: pre-steady-state target cleavage rate (min^-1); guide: L1MC piRNA 5'p-UAACUAAAUACUAUGCAAGCUGUAGG; MIWI and MILI are mouse PIWI proteins and EfPiwi is from a freshwater sponge; tags in brackets are library labels; higher = faster piRNA-guided slicing of the target
Procedure, shortened: as §1

[3] = auxiliary factor: none (no GTSF1)
[4] = auxiliary factor: 500 nM Ephydatia muelleri Gtsf1
[5] = auxiliary factor: none (no Gtsf1)
[6] = auxiliary factor: 500 nM mouse GTSF1

UCCUGGAUGAGCUUGCAUAGUAUAAAGUAA
pre-steady-state target cleavage rate [1, 3]: 0.00143 ± 0.0048
pre-steady-state target cleavage rate [2, 4]: 0.000951 ± 0.0066
pre-steady-state target cleavage rate [2, 5]: 0.000366 ± 0.024

UCCUGCUACAGCUUGCAUAGUAUAAUCAAA
pre-steady-state target cleavage rate [1, 3]: 0.0012 ± 0.0053
pre-steady-state target cleavage rate [2, 4]: 0.00391 ± 0.0037
pre-steady-state target cleavage rate [2, 5]: 0.000452 ± 0.015

UCCUGGUACAGGUUGCUUAGUAUUUAGUUA
pre-steady-state target cleavage rate [1, 6]: 0.328 ± 0.022
pre-steady-state target cleavage rate [2, 4]: 0.00576 ± 0.003
pre-steady-state target cleavage rate [2, 5]: 0.0016 ± 0.0073

UCCUGGAUGUCGAAGGAAAGUAUUUAGUUA
pre-steady-state target cleavage rate [1, 6]: 0.000384 ± 0.018
pre-steady-state target cleavage rate [2, 4]: < 0.0001
pre-steady-state target cleavage rate [2, 5]: 0.000207 ± 0.027

UCCUGGAUGUGCUUGCAUAGUAUUUAGUAUA
pre-steady-state target cleavage rate [1, 3]: 0.00202 ± 0.005
pre-steady-state target cleavage rate [2, 4]: 0.00507 ± 0.0027
pre-steady-state target cleavage rate [2, 5]: 0.000168 ± 0.073

UCCUCCUACAGGUUGCAUAGUAUUUACUUA
pre-steady-state target cleavage rate [1, 3]: 0.00196 ± 0.0028
pre-steady-state target cleavage rate [2, 4]: 0.00113 ± 0.0018
pre-steady-state target cleavage rate [2, 5]: 0.000178 ± 0.018

UCCUGGAUCAGCAUGCAUAGUAUUUAGUUA
pre-steady-state target cleavage rate [1, 6]: 0.314 ± 0.019
pre-steady-state target cleavage rate [2, 4]: 0.12 ± 0.026
pre-steady-state target cleavage rate [2, 5]: 0.00148 ± 0.0056

UCCUGGAUGUGCUUGCAUAGUAUUUACAAA
pre-steady-state target cleavage rate [1, 3]: 0.00159 ± 0.0042
pre-steady-state target cleavage rate [2, 4]: 0.00369 ± 0.0033
pre-steady-state target cleavage rate [2, 5]: 0.000151 ± 0.061

UCCUGGAUGAGCUUGCAUAGUAUAUUAGUUA
pre-steady-state target cleavage rate [1, 3]: 0.00303 ± 0.0034
pre-steady-state target cleavage rate [2, 4]: 0.00346 ± 0.0058
pre-steady-state target cleavage rate [2, 5]: 0.00163 ± 0.0066

UCCUGCGACAGCUUGCAUAGUAUUUAGUUA
pre-steady-state target cleavage rate [1, 6]: 0.298 ± 0.016
pre-steady-state target cleavage rate [2, 4]: 0.0339 ± 0.0075
pre-steady-state target cleavage rate [2, 5]: 0.00118 ± 0.0069

UCCUGCUACAGCUUGCAUAGUAUUUAGAUUA
pre-steady-state target cleavage rate [1, 3]: 0.00212 ± 0.0036
pre-steady-state target cleavage rate [2, 4]: 0.00658 ± 0.0023
pre-steady-state target cleavage rate [2, 5]: 0.00103 ± 0.0087

UCCUGGAUGACCUUGCAUAGUUUUUAGUUA
pre-steady-state target cleavage rate [1, 3]: 0.00306 ± 0.0033
pre-steady-state target cleavage rate [2, 4]: 0.00117 ± 0.0061
pre-steady-state target cleavage rate [2, 5]: 0.000441 ± 0.018
